# Results from the supplement of paper PMC8728848.
# This is one part of the list.
# B1: Pwp1 (Candida glabrata) (protein)
# chain: MGSSHHHHHHSSGLVPRGSHMASANPISITNVCQFPDNWARTAGFQATTVRLGLTIASNTYKELLNYPGLFNFATQKATVTQPNFSISGFPFFTGLYGLTVWPINLLVELQGYFVPPESGNYTFTLQGSDDAAILFFANPSTFACGSQNDWPQPREADITVTDTLVPSRTLYLVKGVAYPIRIAYYNGSGDGKLNVSFKDPSGTTHTDWKGYVWQYSNTCSTCTYT
# Tests used:
# Experiment in all cases: glycan array binding signal (z-score within array); higher = stronger binding
# Conditions in all cases: glycan notation: IUPAC condensed, linker removed
# [1] = biological target: Fuc(a1-2)[GalNAc(a1-3)]Gal(b1-3)GlcNAc(b1-6)GalNAc
# How it was run: (§1)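 The binding signal is a Z-score computed within each array and averaged over linkers. Arrays of the same protein sequence at different concentrations or buffers were also averaged together. Data originate from 3228 arrays in the Consortium for Functional Glycomics database, kept only where the protein sequence was available.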
# [2] = biological target: Fuc(a1-2)[GalNAc(a1-3)]Gal(b1-4)Glc
# How it was run: as §1
# [3] = biological target: Fuc(a1-2)[GalNAc(a1-3)]Gal(b1-4)GlcNAc
# How it was run: as §1
# [4] = biological target: Fuc(a1-2)[GalNAc(a1-3)]Gal(b1-4)GlcNAc(b1-2)Man
# How it was run: as §1
# [5] = biological target: Fuc(a1-2)[GalNAc(a1-3)]Gal(b1-4)GlcNAc(b1-2)Man(a1-3)[Fuc(a1-2)[GalNAc(a1-3)]Gal(b1-4)GlcNAc(b1-2)Man(a1-6)]Man(b1-4)GlcNAc(b1-4)GlcNAc
# How it was run: as §1
# [6] = biological target: Fuc(a1-2)[GalNAc(a1-3)]Gal(b1-4)GlcNAc(b1-2)Man(a1-3)[Fuc(a1-2)[GalNAc(a1-3)]Gal(b1-4)GlcNAc(b1-2)Man(a1-6)]Man(b1-4)GlcNAc(b1-4)[Fuc(a1-6)]GlcNAc
# How it was run: as §1
# [7] = biological target: Fuc(a1-2)[GalNAc(a1-3)]Gal(b1-4)GlcNAc(b1-3)Gal(b1-4)GlcNAc
# How it was run: as §1
# [8] = biological target: Fuc(a1-2)[GalNAc(a1-3)]Gal(b1-4)GlcNAc(b1-3)Gal(b1-4)GlcNAc(b1-3)Gal(b1-4)GlcNAc
# How it was run: as §1
# [9] = biological target: Fuc(a1-2)[GalNAc(a1-3)]Gal(b1-4)GlcNAc(b1-3)GalNAc
# How it was run: as §1
# [10] = biological target: Fuc(a1-2)[GalNAc(a1-3)]Gal(b1-4)GlcNAc(b1-3)[Fuc(a1-2)[GalNAc(a1-3)]Gal(b1-4)GlcNAc(b1-6)]GalNAc
# How it was run: as §1
# [11] = biological target: Fuc(a1-2)[GalNAc(a1-3)]Gal(b1-4)GlcNAc(b1-6)GalNAc
# How it was run: as §1
# [12] = biological target: Fuc(a1-2)[GalNAc(a1-3)]Gal(b1-4)[Fuc(a1-3)]GlcNAc
# How it was run: as §1
# [13] = biological target: Fuc(a1-2)[GalNAc(a1-3)]Gal(b1-4)[Fuc(a1-3)]GlcNAc(b1-3)GalNAc
# How it was run: as §1
# [14] = biological target: Fuc(a1-2)[GalNAc(a1-4)]Gal(b1-4)GlcNAc
# How it was run: as §1
# [15] = biological target: Fuc(a1-2)[GalNAc(b1-3)]Gal
# How it was run: as §1
# Fuc(a1-3)GlcNAc = biological target: Fuc(a1-3)GlcNAc
# How it was run: as §1
# [16] = biological target: Fuc(a1-3)[Gal(b1-4)]Glc6S
# How it was run: as §1
# [17] = biological target: Fuc(a1-3)[Gal(b1-4)]GlcNAc
# How it was run: as §1
# [18] = biological target: Fuc(a1-3)[Gal(b1-4)]GlcNAc(b1-2)Man
# How it was run: as §1
# [19] = biological target: Fuc(a1-3)[Gal(b1-4)]GlcNAc(b1-2)Man(a1-3)[Fuc(a1-3)[Gal(b1-4)]GlcNAc(b1-2)Man(a1-6)]Man(b1-4)GlcNAc(b1-4)GlcNAc
# How it was run: as §1
# [20] = biological target: Fuc(a1-3)[Gal(b1-4)]GlcNAc(b1-2)Man(a1-3)[Fuc(a1-3)[Gal(b1-4)]GlcNAc(b1-2)Man(a1-6)]Man(b1-4)GlcNAc(b1-4)[Fuc(a1-6)]GlcNAc
# How it was run: as §1
# [21] = biological target: Fuc(a1-3)[Gal(b1-4)]GlcNAc(b1-3)Gal(b1-3)[Fuc(a1-4)]GlcNAc
# How it was run: as §1
# [22] = biological target: Fuc(a1-3)[Gal(b1-4)]GlcNAc(b1-3)Gal(b1-4)[Fuc(a1-3)]GlcNAc
# How it was run: as §1
# [23] = biological target: Fuc(a1-3)[Gal(b1-4)]GlcNAc(b1-3)Gal(b1-4)[Fuc(a1-3)]GlcNAc(b1-3)Gal(b1-4)[Fuc(a1-3)]GlcNAc
# How it was run: as §1
# [24] = biological target: Fuc(a1-3)[Gal(b1-4)]GlcNAc(b1-3)GalNAc
# How it was run: as §1
# [25] = biological target: Fuc(a1-3)[Gal(b1-4)]GlcNAc(b1-6)GalNAc
# How it was run: as §1
# [26] = biological target: Fuc(a1-3)[Gal(b1-4)]GlcNAc(b1-6)[Gal(b1-3)GlcNAc(b1-3)]Gal(b1-4)Glc
# How it was run: as §1
# [27] = biological target: Fuc(a1-3)[Gal(b1-4)]GlcNAc6S
# How it was run: as §1
# [28] = biological target: Fuc(a1-3)[Gal3S(b1-4)]Glc
# How it was run: as §1
# [29] = biological target: Fuc(a1-3)[Gal3S(b1-4)]GlcNAc
# How it was run: as §1
# [30] = biological target: Fuc(a1-3)[Gal3S(b1-4)]GlcNAc6S
# How it was run: as §1
# [31] = biological target: Fuc(a1-3)[GalNAc(b1-4)]GlcNAc
# How it was run: as §1
# [32] = biological target: Fuc(a1-3)[GalNAc(b1-4)]GlcNAc6S
# How it was run: as §1
# Fuc(a1-4)GlcNAc = biological target: Fuc(a1-4)GlcNAc
# How it was run: as §1
# Fuc(b1-3)GlcNAc = biological target: Fuc(b1-3)GlcNAc
# How it was run: as §1
# Gal(a1-2)Gal = biological target: Gal(a1-2)Gal
# How it was run: as §1
# Gal(a1-3)Gal = biological target: Gal(a1-3)Gal
# How it was run: as §1
# Gal(a1-3)Gal(b1-3)GlcNAc = biological target: Gal(a1-3)Gal(b1-3)GlcNAc
# How it was run: as §1
# [33] = biological target: Gal(a1-3)Gal(b1-3)GlcNAc(b1-2)Man
# How it was run: as §1
# [34] = biological target: Gal(a1-3)Gal(b1-3)GlcNAc(b1-2)Man(a1-3)[Gal(a1-3)Gal(b1-3)GlcNAc(b1-2)Man(a1-6)]Man(b1-4)GlcNAc(b1-4)GlcNAc
# How it was run: as §1
# [35] = biological target: Gal(a1-3)Gal(b1-3)GlcNAc(b1-3)GalNAc
# How it was run: as §1
# [36] = biological target: Gal(a1-3)Gal(b1-3)GlcNAc(b1-6)GalNAc
# How it was run: as §1
# [37] = biological target: Gal(a1-3)Gal(b1-3)[Fuc(a1-4)]GlcNAc(b1-2)Man(a1-3)[Gal(a1-3)Gal(b1-3)[Fuc(a1-4)]GlcNAc(b1-2)Man(a1-6)]Man(b1-4)GlcNAc(b1-4)GlcNAc
# How it was run: as §1
# Gal(a1-3)Gal(b1-4)Glc = biological target: Gal(a1-3)Gal(b1-4)Glc
# How it was run: as §1
# Gal(a1-3)Gal(b1-4)GlcNAc = biological target: Gal(a1-3)Gal(b1-4)GlcNAc
# How it was run: as §1
binder,measurement,setting,value
B1,glycan array binding signal (z-score),[1],1.14
same,glycan array binding signal (z-score),[2],0.916
same,glycan array binding signal (z-score),[3],0.714
same,glycan array binding signal (z-score),[4],0.259
same,glycan array binding signal (z-score),[5],-0.999
same,glycan array binding signal (z-score),[6],-1.03
same,glycan array binding signal (z-score),[7],-1.8
same,glycan array binding signal (z-score),[8],-1.89
same,glycan array binding signal (z-score),[9],2.36
same,glycan array binding signal (z-score),[10],0.674
same,glycan array binding signal (z-score),[11],0.906
same,glycan array binding signal (z-score),[12],0.077
same,glycan array binding signal (z-score),[13],-0.825
same,glycan array binding signal (z-score),[14],-0.784
same,glycan array binding signal (z-score),[15],-0.259
same,glycan array binding signal (z-score),Fuc(a1-3)GlcNAc,0.626
same,glycan array binding signal (z-score),[16],1.09
same,glycan array binding signal (z-score),[17],0.339
same,glycan array binding signal (z-score),[18],1.09
same,glycan array binding signal (z-score),[19],0.4
same,glycan array binding signal (z-score),[20],-0.278
same,glycan array binding signal (z-score),[21],3.12
same,glycan array binding signal (z-score),[22],-0.463
same,glycan array binding signal (z-score),[23],-0.488
same,glycan array binding signal (z-score),[24],0.036
same,glycan array binding signal (z-score),[25],0.625
same,glycan array binding signal (z-score),[26],-0.507
same,glycan array binding signal (z-score),[27],-1.68
same,glycan array binding signal (z-score),[28],0.697
same,glycan array binding signal (z-score),[29],1.09
same,glycan array binding signal (z-score),[30],1.94
same,glycan array binding signal (z-score),[31],-1.67
same,glycan array binding signal (z-score),[32],-0.715
same,glycan array binding signal (z-score),Fuc(a1-4)GlcNAc,-1.21
same,glycan array binding signal (z-score),Fuc(b1-3)GlcNAc,-1.68
same,glycan array binding signal (z-score),Gal(a1-2)Gal,0.794
same,glycan array binding signal (z-score),Gal(a1-3)Gal,0.153
same,glycan array binding signal (z-score),Gal(a1-3)Gal(b1-3)GlcNAc,0.967
same,glycan array binding signal (z-score),[33],-0.583
same,glycan array binding signal (z-score),[34],-1.23
same,glycan array binding signal (z-score),[35],0.151
same,glycan array binding signal (z-score),[36],-1.51
same,glycan array binding signal (z-score),[37],-0.466
same,glycan array binding signal (z-score),Gal(a1-3)Gal(b1-4)Glc,-0.08
same,glycan array binding signal (z-score),Gal(a1-3)Gal(b1-4)GlcNAc,0.472

# Some of the entries so far, bar-delimited:
binder | measurement | setting | value
B1 | glycan array binding signal (z-score) | [26] | -0.507
same | glycan array binding signal (z-score) | [27] | -1.68
same | glycan array binding signal (z-score) | [28] | 0.697
same | glycan array binding signal (z-score) | [29] | 1.09
same | glycan array binding signal (z-score) | [30] | 1.94
same | glycan array binding signal (z-score) | [31] | -1.67
same | glycan array binding signal (z-score) | [32] | -0.715
same | glycan array binding signal (z-score) | Fuc(a1-4)GlcNAc | -1.21
same | glycan array binding signal (z-score) | Fuc(b1-3)GlcNAc | -1.68
same | glycan array binding signal (z-score) | Gal(a1-2)Gal | 0.794
same | glycan array binding signal (z-score) | Gal(a1-3)Gal | 0.153
same | glycan array binding signal (z-score) | Gal(a1-3)Gal(b1-3)GlcNAc | 0.967
same | glycan array binding signal (z-score) | [33] | -0.583
